The values below come from PubChem BioAssay AID1458 (National Center for Advancing Translational Sciences (NCATS), 2008).

The campaign covered roughly 210,000 compounds. About 5,900 (2.8%) were called active. About 5% were inconclusive and are not listed. Calls come from the whole dose curve; as a rule, active = well fitted activation curve with a large enough effect; inconclusive = small, poorly fitted or top-dose-only effect; inactive = no such curve, though single readings can be large or run the other way. The list shows a part of the results, in another mix than the full data. Where no call is shown, the source filed none.
Potency is the fitted concentration of half-maximal effect.

The nature of the test: qHTS Assay for Enhancers of SMN2 Splice Variant Expression. For activity change, positive = activation: % of control where 0% means no effect. Note: nearly all actives have a fitted effect of over 55% in size. Particulars: HEK293 SMN2-luciferase splicing reporter, luminescence, 30-36 h; activity change, positive = activation: at 46.1 µM (top of the series) unless noted. In a few lines:
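HEK293 cells carry an SMN2 minigene-luciferase reporter in which exon 7 inclusion puts luciferase in frame. Cells were seeded at 2000 cells/well, attached for 10-12 hours, then exposed to compounds for 30-36 hours at 37C before ONE-Glo luminescence.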
For orientation: qHTS replaces the single test concentration by a dilution series.
In the case of `COc1cc(SC)ccc1C(=O)Nc1nc(C)cs1`, the “activity change, positive = activation” value was inactive: -80.7%.

Consider `O=C(Nc1ccc(/C=C/c2nc3ccccc3o2)cc1)c1c(F)cccc1F`, for which the Potency is active: 8.91 µM. In the case of `COc1ccc(NC(=S)NC(NC(=O)c2cccc(Cl)c2)C(Cl)(Cl)Cl)c([N+](=O)[O-])c1` (configuration not stated), the “activity change, positive = activation” value is inactive: -96.9%. The same measure, in the same setting: the figure for `Cc1c(CCC(=O)NCc2ccc(F)cc2)c(=O)oc2cc(O)ccc12` is 59.3%; for `O=c1c(-c2ccc(F)cc2)coc2cc(O)ccc12` it is inactive: 77.5%.

As to `Cc1nn(-c2ccccc2)c(N)c1Sc1ccc([N+](=O)[O-])cc1`, the “activity change, positive = activation” value was inactive: -37.6%.

Regarding `Cc1cc(C)c2c(=O)[nH]n(C(C)C)c2n1`, the activity change, positive = activation came out at 38.8%. Still for that read-out and setting: for `Cc1ccc(S(=O)(=O)Nc2c(C)n(C)n(-c3ccccc3)c2=O)cc1C(=O)NCc1ccccn1` the value was 32.6%. For the molecule `Cc1nn2cc(-c3ncc(C(F)(F)F)cc3Cl)cnc2c1Br`, the activity change, positive = activation came out at 46.3%.

With `O=C(c1cc(-c2ccc(Cl)cc2)on1)N1CCOCC1`, the Potency is active: 3.16 µM. Consider `CCOc1ccc(NC(=O)Cn2c(=O)n(-c3cccc(Cl)c3)c(=O)c3c2c2cc(C)ccc2n3C)cc1`, for which the activity change, positive = activation was 36.3%.

Take `CSc1nc(-c2ccccc2)nn1S(=O)(=O)c1ccc(Cl)cc1`: the activity change, positive = activation was 30.9%. In the case of `COc1ccc2c(Cl)c(C(=O)NCCCn3ccnc3)sc2c1Cl`, the “activity change, positive = activation” value was inactive: -30.8%. `Clc1ccc(CN2CCN(/N=C/c3ccco3)CC2)cc1`: the activity change, positive = activation was -34%. On to `Cn1cc([N+](=O)[O-])c(C(=O)Nc2ccc3nc(-c4ccccc4)[nH]c3c2)n1`, for which the Potency was active: 15.8 µM. As to `COc1ccc(Nc2nc(NCc3ccco3)nc(N/N=C/c3ccc(O)cc3)n2)cc1`, the activity change, positive = activation was -93.8%. Consider `CC(=O)NC1=NN(C(C)=O)C(C)(c2ccc3ccccc3c2)S1` (configuration not stated), for which the activity change, positive = activation is -31%. As to `COc1ccccc1-c1nc(NCc2ccccc2)c2ccccc2n1`, the “activity change, positive = activation” value was inactive: -106%.

As for `O=C(NCCCn1ccnc1)C1c2ccccc2Oc2ccccc21`, the activity change, positive = activation was 36.6%.

Turning to `COc1ccc(NS(=O)(=O)c2ccc3oc4ccccc4c3c2)cn1`, the activity change, positive = activation is -38.1%. Still for that read-out and setting: for `N#CCCSCc1ccc2oc(C(=O)O)cc2c1` the value was 39.4%; for `O=C(CSc1nc2[nH]ncc2c(=O)n1-c1ccccc1Br)NCc1ccco1`, 61.7%. As to `Cc1ccc(C(=O)Nc2cc(Cl)ccc2OC(=O)c2ccc(C)cc2)cc1`, the Potency was active: 14.1 µM. Take `Cc1nn(C)cc1C(C(=O)NC1CCCCC1)N(C(=O)Cc1cccs1)c1ccc(C(C)C)cc1` (configuration not stated): the “activity change, positive = activation” value was inactive: -37.1%. The same measure, in the same setting: the figure for `c1ccc2c(c1)CCCN2Cc1nnnn1C1CCCC1` is 49.4%; for `O=C1C2C(C(=O)N1/N=C/c1cccc([N+](=O)[O-])c1)C1C=CC2C12CC2` (configuration not stated) it is inactive: 16.3%; for `COc1cc(C2c3cc4c(cc3C(OC3OC5COC(C)O[C@@H]5C(O)C3O)C3COC(=O)C23)OCO4)cc(OC)c1O` (some centres not stated) it is inactive: -57.8%. For the molecule `CCN1CCN(C(c2cc3cccc(C)c3[nH]c2=O)c2nnnn2Cc2ccccc2)CC1` (configuration not stated), the activity change, positive = activation amounted to 35.5%. Consider `O=C(O)c1ccc(COc2c(F)c(F)cc(F)c2F)o1`, for which the activity change, positive = activation amounted to 31.2%. As for `Cc1cccc(NC(=O)C(c2ccccc2Cl)N2CCOCC2)c1` (configuration not stated), the activity change, positive = activation was -31.3%.

Turning to `CC(C)CC(=O)Nc1ccc(-c2nc3ccccc3c(=O)[nH]2)cc1`, the Potency is active: 3.16 µM. In the case of `CC1(C)CC(=O)c2cnn(-c3nc4ccccc4[nH]3)c2C1`, the activity change, positive = activation stood at 43.2%.

On to `CCn1c(SC(C)C)nnc1C1CCN(S(=O)(=O)c2ccc(OC)cc2)CC1`, for which the “activity change, positive = activation” value was inactive: -31.9%. On the same count and under the same terms, the figure for `CC(Oc1ccc(Cl)cc1Cl)C(=O)Nc1ccc2oc(-c3ccncc3)nc2c1` (configuration not stated) is -73.5%; for `O=C(Cc1ccccc1)Nc1ccc2c(c1)CCC2` it is 129%; for `CCCS(=O)(=O)c1c(S(=O)(=O)CCC)c2cc(C(C)(C)C)ccn2c1C(=O)c1ccc(OC)c(OC)c1` it is 35.3%. Still for that read-out and setting: for `O=C(c1ccccc1[N+](=O)[O-])N1CCC(Cc2ccccc2)CC1` the value was -36.7%. For `CC(C)CCNC(=O)CCCOc1cc(=O)n(C)c2ccccc12`, the Potency is active: 12.6 µM. On to `Cc1ccc(Cc2nnc3n(-c4ccccc4)nc(C(=O)c4ccccc4)n3c2=O)cc1`, for which the activity change, positive = activation was -43%. `COc1cc(-c2cc(C(=O)Nc3ccc(S(=O)(=O)NCc4ccco4)cc3)c3ccccc3n2)cc(OC)c1OC`: the activity change, positive = activation is -31.5%.

In the case of `CC(=O)NC1=C(NC2CCS(=O)(=O)C2)C(=O)c2ccccc2C1=O` (configuration not stated), the activity change, positive = activation was -35.3%. On the same count and under the same terms, the figure for `CNc1oc(C)nc1S(=O)(=O)c1ccccc1` is 24.6%; for `CN(C)CCN(C)Cc1ccccc1Sc1cccc2ccccc12` it is inactive: -24.2%. Still for that read-out and setting: for `N#C/C(=C\c1ccco1)Sc1nc2ccccc2s1` the value was 52.5%. For `Cc1cc(NC(=O)c2ccc3c(c2)OCCO3)ccc1NC(=O)c1ccco1`, the Potency was active: 11.2 µM. In the case of `CCCn1nnc(NC(=O)c2ccc3ccccc3c2)n1`, the activity change, positive = activation was determined as 31.2%.

Consider `CC(N=Cc1cccc(O)c1O)c1ccccc1` (configuration not stated), for which the activity change, positive = activation was determined as 72.6%. The same measure, in the same setting: for `COc1ccc(/C=N/Nc2ccc(C(=O)O)cc2)cc1Br` the value was inactive: -79.7%. As to `Cc1ccccc1NC(=O)c1cc(C(=O)c2cc(Cl)ccc2O)cn(-c2ccccc2C)c1=O`, the “activity change, positive = activation” value was inactive: -56.9%.

Turning to `O=C(Nc1nc(-c2ccc(Oc3ccccc3)cc2)cs1)C1=COCCO1`, the “activity change, positive = activation” value is inactive: -61%.

As to `CS(=O)(=O)Nc1ccccc1C(=O)c1ccccc1`, the activity change, positive = activation worked out at 45.3%. As for `Cn1c2ccccc2c(=O)c2c(=O)n(Cc3ccco3)c(COc3ccccc3)nc21`, the Potency was active: 35.5 µM.
